The series is described as follows: general procedure: peptide synthesis; HATU/DIPEA (cyclisation of Cyclosporin A precursor); iodine (Desmopressin). As to conditions: cyclisation step, 205 nm.

Results on 1 substance are retold here after patent US11807664 (dated 2023).

As to Cyclosporin A, the “crude HPLC purity” value (run 1) is recorded as 73.12%, the “crude HPLC purity” value (run 2) is reported as 85.28%, the “crude HPLC purity” value (run 3) was 87.14% and the “crude HPLC purity” value (run 4) is on record as 86.609%.
